Test results published in PMC8080764.
For at least one entry, the source does not settle the construct or the ends of the probe. Results from cells or extracts need not show a direct contact. Weaker means in comparison with the reference protein, sequence or condition of that experiment. Protein sequences can lack the tags named with them.

Target: T1, SRF WT (HA-SRF, pCGN-SRF-HA) (UniProt P11831)
T1 sequence (looked up, limits assumed): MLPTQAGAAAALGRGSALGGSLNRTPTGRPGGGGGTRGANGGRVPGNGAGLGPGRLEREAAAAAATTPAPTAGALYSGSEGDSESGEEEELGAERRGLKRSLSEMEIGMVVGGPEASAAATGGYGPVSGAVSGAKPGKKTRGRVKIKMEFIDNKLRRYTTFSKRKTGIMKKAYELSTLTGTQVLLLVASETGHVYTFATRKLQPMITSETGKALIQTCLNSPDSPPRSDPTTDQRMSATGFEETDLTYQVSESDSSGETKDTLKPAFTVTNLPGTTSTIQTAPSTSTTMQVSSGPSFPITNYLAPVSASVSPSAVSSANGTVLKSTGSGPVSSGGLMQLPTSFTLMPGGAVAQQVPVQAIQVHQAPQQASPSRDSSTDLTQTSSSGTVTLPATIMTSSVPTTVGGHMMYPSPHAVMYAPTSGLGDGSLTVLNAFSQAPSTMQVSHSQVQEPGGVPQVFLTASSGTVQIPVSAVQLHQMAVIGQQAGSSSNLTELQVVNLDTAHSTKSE
Assay: EMSA
Details: LightShift chemiluminescent EMSA kit binding buffer (composition, salt and pH not given), 30 min at room temperature, 5% PAGE, 0.5x TBE, 100 V, 1 h, protein in an extract, protein details: HA, label: 3' biotin

Row | Sequence | binding result (KDM2B co-transfected) | binding result
1 | AGAACCCATAAATGGGGTGC (double strand) [Acta1 SRE far (distal SRE)] | binds more weakly | binds
2 | GACACCCAAATATGGCTTGG (double strand) [Acta1 SRE near (proximal SRE)] | binds more weakly | binds
